The record followed here is PMC12040169 (PLOS Biology, 2025).

The other results are listed elsewhere or left out.

In the experiment the test system is T1, CTL2-GFP (C. trachomatis L2/434/Bu, GFP-expressing).
T1 construct: L2/434/Bu, GFP-expressing
The arrangement: species or system HeLa; Intracellular C. trachomatis growth in HeLa cells, bulk GFP fluorescence relative to DMSO. The conditions noted are these: bulk GFP, single well; 28.5 h, 10 µM; inhibitor.
Consider `COc1cccc2c(O)cnnc12` [CBK026139], for which the “% of control remaining” value is listed as 117.688%.

As to `Cc1cc(C(=O)O)ccc1-c1ccc(/C=N/n2cnnc2)o1` [CBK264713], the “% of control remaining” value is 120.706%.

On to `CC1CN(S(=O)(=O)c2ccc3c(c2)C(=O)c2cc(S(=O)(=O)N4CC(C)OC(C)C4)ccc2-3)CC(C)O1` (centres unmarked) [CBK263355], for which the “% of control remaining” value was 100%.

As to `O=C(O)CCC(=O)N1CCN(c2ccc(C(=O)c3ccc(F)cc3)cc2)CC1` [CBK269119], the “% of control remaining” value was determined as 108.842%.

Regarding `COc1ccc([N+](=O)[O-])cc1NC(=O)C1C2CCC(C2=C(C)C)C1C(=O)O` (centres unmarked) [CBK263686], the “% of control remaining” value is recorded as 103.683%.

With `O=C(c1cccc(Cn2cccn2)c1)N1CCc2sccc2C1c1ccccc1` (centres unmarked) [CBK285552], the “% of control remaining” value was determined as 105.024%.

Turning to `COc1cccc(/C=N/NC(=O)CSc2nnc(C)n2-c2ccccc2)c1O` [CBK262758], the “% of control remaining” value stood at 100%.

On to `Clc1ccc(SCCN2CCOCC2)cc1` [CBK265055G], for which the “% of control remaining” value turned out to be 113.934%.

On to `Cc1ccc2c(c1)C(=O)NCC1(CCN(C(=O)c3ccco3)CC1)O2` [CBK282894], for which the “% of control remaining” value is on record as 125.541%.

Turning to `COc1cc(NC(=O)N2CCNC(=O)C2)cc(OC)c1OC` [CBK155875], the “% of control remaining” value is given as 91.9628%.

For the compound `CC(C)n1c(=O)n(CC(=O)N2CCCCCC2)c2cccnc21` [CBK283527], the “% of control remaining” value is 140.407%.

Take `Cc1ccc2[nH]c3c(c2c1)CCNC31CCN(C(=O)Nc2c(C)noc2C)CC1` [CBK047071]: the “% of control remaining” value is on record as 127.496%.

Turning to `CCc1ccc2c(c1)C(CCNC(=O)CCc1ccsc1)C(=O)N2` (centres unmarked) [CBK305063], the “% of control remaining” value was determined as 101.593%.

On to `O=C(O)CC(Cc1ccccc1)c1ccc(Cl)cc1` (centres unmarked) [CBK270231], for which the “% of control remaining” value was found to be 140.513%.

Consider `COCCn1c(SCc2cn3ccccc3c2C#N)nc(C)c1C` [CBK306282], for which the “% of control remaining” value worked out at 97.564%.

Consider `O=c1[nH]cc([C@H]2C[C@@H](O)[C@@H](CO)O2)c(=O)[nH]1` [CBK201158], for which the “% of control remaining” value is listed as 139.685%.

As to `O=C1NN(c2ccc(Br)cc2)C(=O)/C1=C\c1ccc(-c2ccc3c(c2)C(=O)NC3=O)o1` [CBK262968], the “% of control remaining” value turned out to be 111.556%.

Take `OC(CN1CCC(O)(c2ccc(C(F)(F)F)cc2)CC1)c1ccccc1` (centres unmarked) [CBK286323]: the “% of control remaining” value was 128.643%.

`Cc1cc(NC(=O)CN2CCC(CNc3ccccn3)C2)on1` (centres unmarked) [CBK305760]: the “% of control remaining” value is 130.871%.

As to `CN1CCN(C(=O)c2cc(C(C)(C)C)nn2Cc2ccc(Cl)cc2Cl)CC1` [CBK107285], the “% of control remaining” value was 121.255%.

As to `CC1(C)CN=C(N2CCN(c3c4c(c(C#N)c5nc6ccccc6n35)CCC4)CC2)S1` [CBK263113], the “% of control remaining” value is on record as 100%.

`CN1CCN(NC(=O)C2C3C=CC(C3)C2C(=O)O)CC1` (centres unmarked) [CBK286915]: the “% of control remaining” value was 120.467%.

For `Cc1cc(NS(=O)(=O)c2ccc(N3CCOCC3)nc2)n(C)n1` [CBK067253], the “% of control remaining” value is reported as 105.147%.

With `O=C(O)c1cc(S(=O)(=O)NCc2ccc(Cl)cc2Cl)ccc1O` [CBK296924], the “% of control remaining” value is 142.244%.

Regarding `CCC(NC(=O)C(C)Cn1cccn1)c1ccc(F)cc1` (centres unmarked) [CBK283210], the “% of control remaining” value is 136.081%.

In the case of `c1ncc(N2CCCC2)nc1OC1CCOC1` (centres unmarked) [CBK115893], the “% of control remaining” value was 106.681%.

`O=C(c1ccc(-c2nccnc2NCc2ccc(C(F)(F)F)cc2)cc1)N1CCOCC1` [CBK036931]: the “% of control remaining” value amounted to 173.191%.

Turning to `Oc1nc(CSc2nnc(-c3ccncc3)n2-c2ccccc2)nc2ccccc12` [CBK264851], the “% of control remaining” value is reported as 126.671%.

For `OCCOc1cccnc1OCCN1CCCC1` [CBK039174], the “% of control remaining” value came out at 114.375%.

Regarding `Cc1cc2ccccc2n1CCCNC(=O)c1ccc(=O)n(C)c1` [CBK282982], the “% of control remaining” value was determined as 103.678%.

On to `O=S1(=O)N=c2cc3c(c4cccc1c24)=Nc1ccccc1N3` [CBK020253], for which the “% of control remaining” value was 132.713%.

Consider `O=C(NC1CCCCC1)NS(=O)(=O)c1ccc(CCNC(=O)c2cnc3ccccc3n2)cc1` [CBK013051], for which the “% of control remaining” value was 135.738%.

For `Cc1ccc(NC(=O)C2CN(S(=O)(=O)c3ccccc3)CCN2S(=O)(=O)c2ccccc2)c(C)c1` (centres unmarked) [CBK262693], the “% of control remaining” value is reported as 130.333%.

Consider `CN1CCN(C(=O)c2cc(Br)cnc2NCc2cccnc2)CC1` [CBK076347], for which the “% of control remaining” value was determined as 112.033%.

On to `COC(=O)C1=C(C)N(CCc2ccccc2)C(=O)C1(NC(=O)c1ccccc1)C(F)(F)F` (centres unmarked) [CBK267477], for which the “% of control remaining” value worked out at 153.951%.

On to `OCCNc1nc2cc(Cl)ccc2[nH]1` [CBK262295], for which the “% of control remaining” value is on record as 114.429%.

Turning to `Cc1cc(C)n(CC(C)NC(=O)C(c2ccccc2)N2CCCC2)n1` (centres unmarked) [CBK281645], the “% of control remaining” value amounted to 145.875%.

Turning to `c1cncc(-c2csc(Nc3nc4cc5c(cc4s3)OCO5)n2)c1` [CBK287490], the “% of control remaining” value is on record as 144.461%.

In the case of `COc1ccc(C(C)C)cc1-c1cnc2[nH]c(=O)n([C@H](C)c3ccccc3)c2n1` [CBK064181], the “% of control remaining” value is recorded as 78.2345%.

Take `COc1cccc(CN2CCCC(NC(=O)c3csc(C(C)=O)c3)C2)c1` (centres unmarked) [CBK307297]: the “% of control remaining” value came to 103.673%.

As for `COc1ccc2c(c1)c(C)c(C(=O)N1CCCCC1CN(C)C)n2C` (centres unmarked) [CBK282190], the “% of control remaining” value worked out at 142.896%.

As for `Cn1cncc1C(=O)N1Cc2ccccc2C1` [CBK200329], the “% of control remaining” value came to 108.33%.

With `CC(C)NC(=O)N1Cc2nc[nH]c2C[C@H]1c1nc(-c2ccccc2)no1` [CBK288996], the “% of control remaining” value is 145.167%.

With `c1ccc(-c2nnc(COc3ccc(-c4cnc5ccccc5n4)cc3)o2)cc1` [CBK269707], the “% of control remaining” value is reported as 119.94%.

Regarding `NC(=O)C1CCN(C2=NC(=O)/C(=C/c3cn(-c4ccccc4)nc3-c3ccc(F)cc3)S2)CC1` [CBK265175], the “% of control remaining” value was 130.868%.

As to `CC1(C)Cc2c(ccc3ccccc23)C(NCC(=O)O)=N1` [CBK262559], the “% of control remaining” value turned out to be 111.918%.

`Cc1cccc2c3c([nH]c12)CCN(C(=O)C(C)N1CCOCC1)C3` (centres unmarked) [CBK281600]: the “% of control remaining” value stood at 141.75%.

Consider `Cc1ccc(C(=O)Cn2c3ccccc3n3ncnc23)cc1` [CBK263081], for which the “% of control remaining” value is 106.886%.

As for `CCC(C)C(NC(=O)C1CCN(S(=O)(=O)c2ccc(OC)c(OC)c2)CC1)C(=O)O` (centres unmarked) [CBK297140], the “% of control remaining” value is 102.419%.

With `O=C(NC(N1CCOCC1)C(Cl)(Cl)Cl)c1ccc(Cl)cc1` (centres unmarked) [CBK261084], the “% of control remaining” value was 107.474%.
